# These are yes or no findings as the source states them, for the method shown. Binding seen in cells or lysates may run through a third protein. Some binding calls cover weakened binding; strength is not graded here. For part of these data: Sequences can lack the tags named with a protein.
# T1: Cas5 of E. coli K12 Type I-E CRISPR/Cas complex (E. coli K12) (UniProt Q46898)
# T1 sequence: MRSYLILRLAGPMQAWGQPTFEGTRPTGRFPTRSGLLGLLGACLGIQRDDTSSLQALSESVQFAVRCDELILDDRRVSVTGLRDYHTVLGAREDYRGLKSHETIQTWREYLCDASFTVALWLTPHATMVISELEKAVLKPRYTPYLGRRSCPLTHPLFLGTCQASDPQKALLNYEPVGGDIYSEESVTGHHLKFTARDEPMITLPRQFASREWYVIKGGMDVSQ
# T2: Cas6 of E. coli K12 Type I-E CRISPR/Cas complex (E. coli K12) (UniProt Q46897)
# T2 sequence: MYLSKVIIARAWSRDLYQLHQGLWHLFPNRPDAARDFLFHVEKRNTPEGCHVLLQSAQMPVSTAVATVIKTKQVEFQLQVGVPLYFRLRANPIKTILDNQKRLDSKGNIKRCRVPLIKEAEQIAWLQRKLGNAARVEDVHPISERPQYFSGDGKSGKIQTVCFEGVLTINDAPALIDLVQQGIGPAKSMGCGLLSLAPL
# T3: Cas1 of E. coli K12 Type I-E CRISPR/Cas complex (E. coli K12) (UniProt Q46896)
# T3 sequence: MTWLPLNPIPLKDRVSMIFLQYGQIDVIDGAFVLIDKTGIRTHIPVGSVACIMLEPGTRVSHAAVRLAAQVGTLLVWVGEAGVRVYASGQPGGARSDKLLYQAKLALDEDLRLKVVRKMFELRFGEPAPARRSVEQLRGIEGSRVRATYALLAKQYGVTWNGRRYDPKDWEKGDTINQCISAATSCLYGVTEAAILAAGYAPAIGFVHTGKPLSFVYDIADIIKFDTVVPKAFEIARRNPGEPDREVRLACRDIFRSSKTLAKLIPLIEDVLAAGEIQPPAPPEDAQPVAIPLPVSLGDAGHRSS
# T4: Cas8 of E. coli K12 Type I-E CRISPR/Cas complex (E. coli K12) (UniProt Q46901)
# T4 sequence: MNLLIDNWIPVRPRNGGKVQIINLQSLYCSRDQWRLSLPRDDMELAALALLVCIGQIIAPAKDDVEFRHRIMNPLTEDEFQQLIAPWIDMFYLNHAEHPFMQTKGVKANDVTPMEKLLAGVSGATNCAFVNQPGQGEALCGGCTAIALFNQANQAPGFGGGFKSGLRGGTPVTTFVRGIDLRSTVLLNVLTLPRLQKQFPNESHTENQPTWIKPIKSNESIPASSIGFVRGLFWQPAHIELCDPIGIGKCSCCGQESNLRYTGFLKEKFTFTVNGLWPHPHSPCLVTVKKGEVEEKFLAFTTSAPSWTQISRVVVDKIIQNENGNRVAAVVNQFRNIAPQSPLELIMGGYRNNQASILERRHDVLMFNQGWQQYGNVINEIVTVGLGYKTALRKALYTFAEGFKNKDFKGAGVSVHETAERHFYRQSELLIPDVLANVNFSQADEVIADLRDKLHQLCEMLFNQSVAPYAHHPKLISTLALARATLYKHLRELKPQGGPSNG
# T5: Lto1 from Fe-S protein assembly (CIA) machinery of Saccharomyces cerevisiae (Saccharomyces cerevisiae) (UniProt P53846)
# T5 sequence: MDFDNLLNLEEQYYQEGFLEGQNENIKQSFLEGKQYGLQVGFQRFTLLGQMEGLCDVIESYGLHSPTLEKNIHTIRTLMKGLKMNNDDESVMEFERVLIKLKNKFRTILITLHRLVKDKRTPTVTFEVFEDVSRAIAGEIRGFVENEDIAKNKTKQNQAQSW
# B1: Cas2 of E. coli K12 Type I-E CRISPR/Cas complex (protein, UniProt P45956 1-94)
# chain: MSMLVVVTENVPPRLRGRLAIWLLEVRAGVYVGDVSAKIREMIWEQIAGLAEEGNVVMAWATNTETGFEFQTFGLNRRTPVDLDGLRLVSFLPV
# B2: Cas3 of E. coli K12 Type I-E CRISPR/Cas complex (natural protein, UniProt P38036 1-888, looked up)
# chain: MEPFKYICHYWGKSSKSLTKGNDIHLLIYHCLDVAAVADCWWDQSVVLQNTFCRNEMLSKQRVKAWLLFFIALHDIGKFDIRFQYKSAESWLKLNPATPSLNGPSTQMCRKFNHGAAGLYWFNQDSLSEQSLGDFFSFFDAAPHPYESWFPWVEAVTGHHGFILHSQDQDKSRWEMPASLASYAAQDKQAREEWISVLEALFLTPAGLSINDIPPDCSSLLAGFCSLADWLGSWTTTNTFLFNEDAPSDINALRTYFQDRQQDASRVLELSGLVSNKRCYEGVHALLDNGYQPRQLQVLVDALPVAPGLTVIEAPTGSGKTETALAYAWKLIDQQIADSVIFALPTQATANAMLTRMEASASHLFSSPNLILAHGNSRFNHLFQSIKSRAITEQGQEEAWVQCCQWLSQSNKKVFLGQIGVCTIDQVLISVLPVKHRFIRGLGIGRSVLIVDEVHAYDTYMNGLLEAVLKAQADVGGSVILLSATLPMKQKQKLLDTYGLHTDPVENNSAYPLINWRGVNGAQRFDLLAHPEQLPPRFSIQPEPICLADMLPDLTMLERMIAAANAGAQVCLICNLVDVAQVCYQRLKELNNTQVDIDLFHARFTLNDRREKENRVISNFGKNGKRNVGRILVATQVVEQSLDVDFDWLITQHCPADLLFQRLGRLHRHHRKYRPAGFEIPVATILLPDGEGYGRHEHIYSNVRVMWRTQQHIEELNGASLFFPDAYRQWLDSIYDDAEMDEPEWVGNGMDKFESAECEKRFKARKVLQWAEEYSLQDNDETILAVTRDGEMSLPLLPYVQTSSGKQLLDGQVYEDLSHEQQYEALALNRVNVPFTWKRSFSEVVDEDGLLWLEGKQNLDGWVWQGNSIVITYTGDEGMTRVIPANPK
# notes: Cas3, effector of the type I-E CRISPR/Cas complex of E. coli K12; source: E. coli BL21(DE3) or BL21(DE3)-SPEC, expressed in the cells (IPTG induction)
# B3: Cas5 of E. coli K12 Type I-E CRISPR/Cas complex (protein, UniProt Q46898 1-224)
# chain: MRSYLILRLAGPMQAWGQPTFEGTRPTGRFPTRSGLLGLLGACLGIQRDDTSSLQALSESVQFAVRCDELILDDRRVSVTGLRDYHTVLGAREDYRGLKSHETIQTWREYLCDASFTVALWLTPHATMVISELEKAVLKPRYTPYLGRRSCPLTHPLFLGTCQASDPQKALLNYEPVGGDIYSEESVTGHHLKFTARDEPMITLPRQFASREWYVIKGGMDVSQ
# B4: Yae1 from Fe-S protein assembly (CIA) machinery of Saccharomyces cerevisiae (protein, UniProt P47118 1-141)
# chain: MSNTWDDVWASDSDVETERSPDLVKLRENHSKRGYLDGIVSSKEEKLQEGFNDGFPTGAKLGKQVGIIMGILLGLRTRFGDEDEDLSKAYIDAQKELRINKVLSKSIFDPNFDLQEKHPLITKWTDIANTYCEKYHVPSIQ
# Legend:
# [1] = target: T1, Cas5 of E. coli K12 Type I-E CRISPR/Cas complex (E. coli K12); experiment: split reporter; SPEC profiling of CRISPR/Cas effectors and Cas3 / Cas2-3 mutants in E. coli cells; sfGFP fluorescence by flow cytometry; interaction intensity normalized to cells expressing wt HRV 3 C protease
# [2] = target: T2, Cas6 of E. coli K12 Type I-E CRISPR/Cas complex (E. coli K12); experiment: as above
# [3] = target: T3, Cas1 of E. coli K12 Type I-E CRISPR/Cas complex (E. coli K12); experiment: as above
# [4] = target: T4, Cas8 of E. coli K12 Type I-E CRISPR/Cas complex (E. coli K12); experiment: as above
# [5] = target: T5, Lto1 from Fe-S protein assembly (CIA) machinery of Saccharomyces cerevisiae (Saccharomyces cerevisiae); experiment: split reporter; SPEC: prey and bait fused to the N- and C-terminal split HRV 3 C protease (split at K82, L94 or N107); re-assembled protease cleaves SsrA off sfGFP-LEVLFQGP-SsrA (on a plasmid) in E. coli BL21(DE3); sfGFP fluorescence by flow cytometry; 25 °C, 8 h induction
binder,measurement,setting,value
B1,binding,[1],binds weakly
same,binding,[2],binds weakly
B2,binding,[3],binds
same,binding,[2],binds weakly
B3,binding,[4],binds weakly
B4,binding,[5],binds
